Results published in PMC8100125.

Chains of the proteins cited; added tags and fusions are not shown. Lines headed by an entry give the natural chain unless they say otherwise; changes in a name come on top.
UniProt P63331: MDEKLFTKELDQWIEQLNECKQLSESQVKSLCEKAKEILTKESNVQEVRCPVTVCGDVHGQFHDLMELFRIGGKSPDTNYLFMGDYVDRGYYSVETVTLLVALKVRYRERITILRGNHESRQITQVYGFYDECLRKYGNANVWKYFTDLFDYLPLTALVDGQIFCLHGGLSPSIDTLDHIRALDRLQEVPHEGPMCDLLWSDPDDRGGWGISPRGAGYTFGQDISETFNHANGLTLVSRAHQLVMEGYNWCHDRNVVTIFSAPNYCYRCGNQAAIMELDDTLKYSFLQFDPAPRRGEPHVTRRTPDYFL

Target: T1, Hyperpolarization-activated, cyclic nucleotide-gated cation channel 4 (native rat HCN4 of NRVMs) (rat (endogenous in NRVMs)) (UniProt Q9JKA7)
T1 sequence: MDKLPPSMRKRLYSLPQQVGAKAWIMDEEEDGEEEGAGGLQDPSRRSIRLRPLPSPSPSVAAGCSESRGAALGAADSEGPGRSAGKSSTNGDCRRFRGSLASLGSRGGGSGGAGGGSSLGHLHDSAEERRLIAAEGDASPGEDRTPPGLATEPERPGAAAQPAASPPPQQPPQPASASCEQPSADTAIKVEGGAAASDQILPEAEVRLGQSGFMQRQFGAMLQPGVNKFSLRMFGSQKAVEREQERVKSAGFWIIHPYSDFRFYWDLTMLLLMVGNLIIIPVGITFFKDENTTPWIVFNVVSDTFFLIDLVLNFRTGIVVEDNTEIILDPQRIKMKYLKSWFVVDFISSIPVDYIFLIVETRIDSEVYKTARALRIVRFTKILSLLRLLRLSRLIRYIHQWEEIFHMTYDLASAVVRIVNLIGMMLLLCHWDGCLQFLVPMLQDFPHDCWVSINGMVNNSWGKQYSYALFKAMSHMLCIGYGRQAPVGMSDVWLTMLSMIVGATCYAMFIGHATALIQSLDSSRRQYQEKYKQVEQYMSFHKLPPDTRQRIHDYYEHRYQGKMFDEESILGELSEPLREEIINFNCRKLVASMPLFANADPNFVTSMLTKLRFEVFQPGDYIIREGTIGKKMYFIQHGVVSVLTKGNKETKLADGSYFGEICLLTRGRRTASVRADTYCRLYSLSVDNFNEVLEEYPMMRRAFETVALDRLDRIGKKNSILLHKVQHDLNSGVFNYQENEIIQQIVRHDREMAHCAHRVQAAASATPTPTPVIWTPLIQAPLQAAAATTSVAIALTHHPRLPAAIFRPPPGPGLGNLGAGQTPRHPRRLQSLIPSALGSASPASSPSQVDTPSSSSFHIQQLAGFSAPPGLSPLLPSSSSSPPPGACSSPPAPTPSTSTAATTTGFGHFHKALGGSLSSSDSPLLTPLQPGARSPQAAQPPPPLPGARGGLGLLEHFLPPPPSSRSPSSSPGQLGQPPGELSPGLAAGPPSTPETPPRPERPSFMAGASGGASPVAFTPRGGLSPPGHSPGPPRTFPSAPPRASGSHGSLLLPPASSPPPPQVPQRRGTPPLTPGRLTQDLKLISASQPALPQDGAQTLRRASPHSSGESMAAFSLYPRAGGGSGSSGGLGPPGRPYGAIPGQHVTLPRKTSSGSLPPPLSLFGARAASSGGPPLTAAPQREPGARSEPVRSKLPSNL
Experiment: co-IP; NRVMs; co-IP for PP2A and SGO1 and for PP2A and HCN4 (Supplementary Fig. 2); which antibody precipitated is not given

protein-phosphatase 2 A (PP2A), detected by its C subunit (from UniProt P63331) (enzyme)
binding: no binding

No constants are given. Whether binding was seen depends on the method and setting. In cells and extracts the contact can be indirect.
